The campaign covered roughly 320,000 compounds. About 22,000 (6.9%) were called active. The shares of active, inactive and inconclusive entries below differ from those in the screen. The call rests on the fitted dose curve; in most records, active means well fitted inhibition curve with a large enough effect; inconclusive means small, poorly fitted or top-dose-only effect, or another doubt; inactive means no such curve, though single readings can be large or run the other way. Potencies beside an inconclusive call are fits to weak or partial responses and may not hold up.
assay: Primary qHTS for delayed death inhibitors of the malarial parasite plastid, 96 hour incubation; conditions: P. falciparum luciferase reporter growth; series mostly up to 28.7 µM
Summary of the method: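 Compounds incubated with erythrocytes infected by luciferase-expressing P. falciparum (2% hematocrit, 0.05% parasitemia final) for 96 hours, 37 C in 5% CO2. Growth inhibition scored as decreased luciferase luminescence.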
Potency means the concentration at half of the fitted maximal effect.

| SMILES | Potency |
| --- | --- |
| CCCCCCCCCOC1OC(CO)C(O)C(O)C1NC(C)=O (centres undefined) | inconclusive: 10.4 µM [inhibitor, single point] |
| C[C@H]1CN=C(N(C)C)N1CCC1CCCC1 | inconclusive: 18.5 µM [inhibitor, single point] |
| CCC(=O)N1CCc2cc(Br)cc(S(=O)(=O)NCc3ccccc3OC)c21 | inconclusive: 6.57 µM [inhibitor, partial curve, poor fit] |
| COCc1c(C(=O)OCC(=O)c2c(N)n(CC(C)C)c(=O)n(C)c2=O)oc2ccccc12 | inconclusive: 14.7 µM [inhibitor, single point] |
| CCN1CCN(S(=O)(=O)c2ccc(-c3cc(C)no3)s2)CC1 | inconclusive: 1.47 µM [inhibitor, full curve] |
| C#CCOc1ccc(/C=C2/C(=O)N(c3cccc(C(=O)O)c3)N=C2C)cc1OC | inactive |
| Cc1ccc(Cl)cc1N1CCN(CC(=O)NC2CCCc3ccccc32)CC1 (centres undefined) | inconclusive: 18.5 µM [inhibitor, single point] |
| CCCc1cc(=O)[nH]c(SCC(=O)Nc2nonc2C)n1 | inconclusive: 8.28 µM [inhibitor, partial curve] |
| Cc1ccc(NC(=O)NCC2CC2(Cl)Cl)cc1 (centres undefined) | inactive |
| Cc1ccc(CNC(=O)CCS(=O)(=O)c2ccc(Br)s2)o1 | inconclusive: 5.22 µM [inhibitor, partial curve] |
| Cc1ccc(NC(=O)c2ocnc2C)cc1Cl | inconclusive: 0.0033 µM [inhibitor, full curve, poor fit] |
| COc1ccc(Cl)cc1C(=O)Nc1nc(C)cc(C)n1 | inconclusive: 14.7 µM [inhibitor, partial curve, poor fit] |
| C/C(=C\C(=O)c1ncc(C(F)(F)F)cc1Cl)N(C)C | inconclusive: 14.7 µM [inhibitor, partial curve] |
| O=C(CCc1nnc(-c2ccc3c(c2)OCO3)o1)N(Cc1ccncc1)CC1CCCO1 (centres undefined) | inactive |
| COc1cc(OC)cc(C(=O)N[C@H](C(=O)NCCc2c[nH]c3ccccc23)C(C)C)c1 | inconclusive: 4.15 µM [inhibitor, full curve, poor fit] |
| CC(C)(C#N)Cc1cc(CC(C)(C)C#N)cc(C(C)(C)C)c1 | inconclusive: 18.5 µM [inhibitor, single point] |
| C/C(Cc1ccccc1)=N\NC(=O)CNC(=O)c1cccc(Cl)c1 | inactive |
| O=C(O)c1cc(NC(=O)C2CCCO2)cc(C(=O)O)c1 (centres undefined) | inconclusive: 18.5 µM [inhibitor, single point] |
| CCCCCCC1C(C#N)=C(N)OC2=C1C(=O)CCC2 (centres undefined) | inconclusive: 4.65 µM [inhibitor, partial curve] |
| CC(C)COc1ccc(CNC(=S)Nc2ccccc2)cc1Cl | inconclusive: 10.4 µM [inhibitor, single point] |
| CC(C)Cn1cnc2c1c(=O)n(CC(=O)NN)c(=O)n2Cc1ccccc1 | inconclusive: 14.7 µM [inhibitor, partial curve] |
| O=C(Nc1cccc(F)c1)c1c(O)c2ccccc2[nH]c1=O | inconclusive: 18.5 µM [inhibitor, single point] |

Among those listed so far, 2 contain fluorine:

| SMILES | Potency |
| --- | --- |
| C/C(=C\C(=O)c1ncc(C(F)(F)F)cc1Cl)N(C)C | inconclusive: 14.7 µM [inhibitor, partial curve] |
| O=C(Nc1cccc(F)c1)c1c(O)c2ccccc2[nH]c1=O | inconclusive: 18.5 µM [inhibitor, single point] |

Next structures.

| SMILES | Potency |
| --- | --- |
| Cc1ccc(/C=N/c2sc3c(c2C#N)CCC3)s1 | active: 7.38 µM |
| Clc1ccc(OCCN2CCN(c3ncnc4sccc34)CC2)cc1 | inconclusive: 14.7 µM [inhibitor, partial curve, poor fit] |
| CCOC(=O)CC1C(=O)NCCN1C(=O)c1sc2ccccc2c1Cl (centres undefined) | inconclusive: 13.1 µM [inhibitor, single point] |
| CNS(=O)(=O)c1ccc(NC(=O)c2ccoc2C)cc1 | inconclusive: 18.5 µM [inhibitor, single point] |
| O=C(CCCCCNC(=O)N1CCn2c1nc1ccccc12)NCc1ccccc1 | inconclusive: 8.28 µM [inhibitor, partial curve] |
| O=C(O)Cn1cnc2sc3c(c2c1=O)CCCC3 | inactive |
| CCC(C)(NC(=O)Cc1c[nH]c2ccccc12)C(=O)NC1CCCCC1 (centres undefined) | inconclusive: 18.5 µM [inhibitor, single point] |
| COc1ccc(C2C(C(=O)N3CCC(C)CC3)c3ccccc3C(=O)N2C)cc1 (centres undefined) | inconclusive: 11.7 µM [inhibitor, single point] |
| O=C(CCC(=O)c1ccc[nH]1)c1ccc(Cl)cc1 | inactive |
| CCCc1cc(=O)[nH]c(SCC(=O)Nc2cc(C)on2)n1 | inconclusive: 18.5 µM [inhibitor, single point] |
| O=C(COc1ccc(Cl)cc1)N1CCN(c2ncccn2)CC1 | inactive |
| COc1ccc(CCNC(=O)c2cc(S(=O)(=O)N3CCOCC3)ccc2F)cc1 | inconclusive: 18.5 µM [inhibitor, single point] |
| COc1ccc(/C=N/c2oc(C)c(C)c2C#N)c(OC)c1 | active: 11.7 µM |
| CCC(NC(=O)C1CCCC1)c1ccc(C)cc1 (centres undefined) | inactive |
| COc1ccc(Cn2ccnc2CO)cc1[N+](=O)[O-] | inconclusive: 18.5 µM [inhibitor, single point] |
| COc1ccccc1C(=O)NNC(=O)CCCN1C(=O)/C(=C/c2cccs2)SC1=S | inconclusive: 18.5 µM [inhibitor, single point] |
| Cc1cc(C)cc(NC(=O)CCN2CCCC2)c1 | inconclusive: 18.5 µM [inhibitor, single point] |
| O=c1c2cc([N+](=O)[O-])ccc2nc(CN2CCN(c3ccccn3)CC2)n1-c1ccccc1F | active: 13.1 µM |
| CCN1CCN(c2cc3c(cc2F)c(=O)c(S(=O)(=O)c2ccccc2)cn3C)CC1 | inconclusive: 2.94 µM [inhibitor, partial curve] |
| CC(=O)c1c(O)c2ccccc2n(C)c1=O | inconclusive: 18.5 µM [inhibitor, single point] |
| COc1ccc(-c2nn(-c3ccccc3)cc2/C=N/NC(=O)c2cccc(S(=O)(=O)Nc3ccccc3Cl)c2)cc1 | active: 2.94 µM |
| CCc1ccccc1NC(=O)Nc1ccc(F)cc1 | inconclusive: 13.1 µM [inhibitor, partial curve] |
